{"source": "PubChem BioAssay AID493246 (Drosophila RNAi Screening Center, 2011)", "screen": "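Genome-wide search for dsRNAs that reduce cell number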 (primary screen)", "system": "Drosophila Kc and S2R+ cells", "reagent": "long dsRNA against Drosophila genes", "read-out": "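Raw, unnormalised count of remaining cells in each well; per-plate z-scores of cell number underlie the calls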", "direction": "Kc cell number and S2R+ cell number: higher = more cells remaining", "rule for the call": "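Counted as a hit if cell number falls by a z-score of at least 3 within its plate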", "note": "The screen tested about 21,000 reagents; below is a random part of those that have a named target and a result. Of all reagents, 429 (2%) are marked active. 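Values are raw and not normalised between plates; calls rest on per-plate z-scores that were not deposited.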 Reagents against one gene are numbered here. Not given: the amount of reagent, the time to read-out."}
{"gene knocked down":"CG2145","reagent no.":1,"Kc cell number, rep 1":5.94e5,"S2R+ cell number, rep 1":8.38e5,"outcome":"inactive"}
{"gene knocked down":"chn","reagent no.":1,"Kc cell number, rep 1":9.80e5,"Kc cell number, rep 2":1.23e6,"S2R+ cell number, rep 1":1.24e6,"S2R+ cell number, rep 2":1.27e6,"outcome":"inactive"}
{"gene knocked down":"CG30412","reagent no.":1,"Kc cell number, rep 1":1.35e6,"Kc cell number, rep 2":1.77e6,"S2R+ cell number, rep 1":1.05e6,"S2R+ cell number, rep 2":1.16e6,"outcome":"inactive"}
{"gene knocked down":"l(3)S110416 (retired record)","reagent no.":1,"Kc cell number, rep 1":1.54e6,"Kc cell number, rep 2":1.65e6,"S2R+ cell number, rep 1":1.15e6,"S2R+ cell number, rep 2":1.23e6,"outcome":"inactive"}
{"gene knocked down":"NfI","reagent no.":1,"Kc cell number, rep 1":1.78e6,"Kc cell number, rep 2":1.78e6,"S2R+ cell number, rep 1":1.02e6,"S2R+ cell number, rep 2":1.25e6,"outcome":"inactive"}
{"gene knocked down":"CG11357","reagent no.":1,"Kc cell number, rep 1":1.36e6,"Kc cell number, rep 2":1.37e6,"S2R+ cell number, rep 1":1.05e6,"S2R+ cell number, rep 2":1.17e6,"outcome":"inactive"}
{"gene knocked down":"CG8541","reagent no.":1,"Kc cell number, rep 1":1.20e6,"Kc cell number, rep 2":1.31e6,"S2R+ cell number, rep 1":1.13e6,"S2R+ cell number, rep 2":1.10e6,"outcome":"inactive"}
{"gene knocked down":"CCT8","reagent no.":1,"Kc cell number, rep 1":1.39e6,"Kc cell number, rep 2":1.44e6,"S2R+ cell number, rep 1":1.17e6,"S2R+ cell number, rep 2":1.32e6,"outcome":"inactive"}
{"gene knocked down":"CG33203","reagent no.":1,"Kc cell number, rep 1":1.40e6,"Kc cell number, rep 2":1.46e6,"S2R+ cell number, rep 1":1.02e6,"S2R+ cell number, rep 2":1.11e6,"outcome":"inactive"}
{"gene knocked down":"CG33203","reagent no.":2,"Kc cell number, rep 1":1.51e6,"Kc cell number, rep 2":1.52e6,"S2R+ cell number, rep 1":1.03e6,"S2R+ cell number, rep 2":1.15e6,"outcome":"inactive"}
{"gene knocked down":"CG33203","reagent no.":3,"Kc cell number, rep 1":1.53e6,"Kc cell number, rep 2":1.58e6,"S2R+ cell number, rep 1":1.04e6,"S2R+ cell number, rep 2":1.14e6,"outcome":"inactive"}
{"gene knocked down":"CG8460","reagent no.":1,"Kc cell number, rep 1":1.38e6,"Kc cell number, rep 2":1.34e6,"S2R+ cell number, rep 1":5.85e5,"S2R+ cell number, rep 2":9.08e5,"outcome":"inactive"}
{"gene knocked down":"robl","reagent no.":1,"Kc cell number, rep 1":1.51e6,"Kc cell number, rep 2":1.55e6,"S2R+ cell number, rep 1":1.09e6,"S2R+ cell number, rep 2":1.20e6,"outcome":"inactive"}

Copied from the list.
Entry of CG33203 #3 under “Kc cell number, rep 2”: 1.58e6
CG30412, S2R+ cell number, rep 1: 1.05e6
Entry of robl in “S2R+ cell number, rep 2”: 1.20e6

Next records follow:
{"gene knocked down":"CG5107","reagent no.":1,"Kc cell number, rep 1":5.16e5,"S2R+ cell number, rep 1":7.27e5,"outcome":"inactive"}
{"gene knocked down":"CG30447","reagent no.":1,"Kc cell number, rep 1":5.44e5,"S2R+ cell number, rep 1":7.77e5,"outcome":"inactive"}
{"gene knocked down":"scramb2","reagent no.":1,"Kc cell number, rep 1":1.43e6,"Kc cell number, rep 2":1.33e6,"S2R+ cell number, rep 1":1.14e6,"S2R+ cell number, rep 2":1.43e6,"outcome":"inactive"}
{"gene knocked down":"Ephrin","reagent no.":1,"Kc cell number, rep 1":1.42e6,"Kc cell number, rep 2":1.48e6,"S2R+ cell number, rep 1":1.06e6,"S2R+ cell number, rep 2":1.16e6,"outcome":"inactive"}
{"gene knocked down":"CG13813","reagent no.":1,"Kc cell number, rep 1":1.66e6,"Kc cell number, rep 2":1.72e6,"S2R+ cell number, rep 1":1.31e6,"S2R+ cell number, rep 2":1.45e6,"outcome":"inactive"}
{"gene knocked down":"CG15922","reagent no.":1,"Kc cell number, rep 1":1.32e6,"Kc cell number, rep 2":1.49e6,"S2R+ cell number, rep 1":1.06e6,"S2R+ cell number, rep 2":1.13e6,"outcome":"inactive"}
{"gene knocked down":"bora","reagent no.":1,"Kc cell number, rep 1":1.46e6,"Kc cell number, rep 2":1.50e6,"S2R+ cell number, rep 1":9.98e5,"S2R+ cell number, rep 2":1.04e6,"outcome":"inactive"}
{"gene knocked down":"Oxp","reagent no.":1,"Kc cell number, rep 1":1.61e6,"Kc cell number, rep 2":1.65e6,"S2R+ cell number, rep 1":1.27e6,"S2R+ cell number, rep 2":1.39e6,"outcome":"inactive"}
{"gene knocked down":"robl37BC","reagent no.":1,"Kc cell number, rep 1":1.78e6,"Kc cell number, rep 2":1.84e6,"S2R+ cell number, rep 1":1.26e6,"S2R+ cell number, rep 2":2.08e5,"outcome":"inactive"}
{"gene knocked down":"CG4558","reagent no.":1,"Kc cell number, rep 1":5.79e5,"S2R+ cell number, rep 1":9.11e5,"outcome":"inactive"}
{"gene knocked down":"ome","reagent no.":1,"Kc cell number, rep 1":1.49e6,"Kc cell number, rep 2":1.58e6,"S2R+ cell number, rep 1":1.09e6,"S2R+ cell number, rep 2":1.25e6,"outcome":"inactive"}
{"gene knocked down":"ome","reagent no.":2,"Kc cell number, rep 1":1.32e6,"Kc cell number, rep 2":1.38e6,"S2R+ cell number, rep 1":1.18e6,"S2R+ cell number, rep 2":1.32e6,"outcome":"inactive"}
{"gene knocked down":"ome","reagent no.":3,"Kc cell number, rep 1":1.43e6,"Kc cell number, rep 2":1.39e6,"S2R+ cell number, rep 1":1.20e6,"S2R+ cell number, rep 2":1.33e6,"outcome":"inactive"}
{"gene knocked down":"sob","reagent no.":1,"Kc cell number, rep 1":1.45e6,"Kc cell number, rep 2":1.42e6,"S2R+ cell number, rep 1":1.00e6,"S2R+ cell number, rep 2":1.07e6,"outcome":"inactive"}
